Results: PubChem BioAssay AID493014 (National Center for Advancing Translational Sciences (NCATS), 2011)
This is one part of the list. Further columns of the screen follow, without active or inactive calls. Compounds called inactive in the main read-out are mostly missing here. The note in brackets gives the kind of curve behind each potency; many fits are weak.

Test: qHTS Assay to Find Inhibitors of Chronic Active B-Cell Receptor Signaling
Conditions: ABC-DLBCL IkBa-CBG/CBR reporter, luminescence ratio (green luciferase fused to IkBa over red control in TMD8 lymphoma cells), 4 h
How it was run: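 Cell line TMD8 (human ABC DLBCL), stably expressing tet-inducible CBG68-IkBa fusion and CBR; IMDM/0.5% FBS; cpd up to 46 uM; dox induction, 4 h, 37C/5% CO2; dual luminescence; green/red ratio; MG132 control.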

[1] = measured here: CBR red luminescence, cell number
[2] = measured here: IkBa-CBG green luminescence

Structure (SMILES)	AC50 [1]	AC50 [2]
CC(=O)NCC(=O)OCC(=O)c1ccc(Cl)cc1	20 µM [falling, partial curve, poor fit]	–
CCOc1ccc(C=Nc2cccc3ncccc23)cc1	22.4 µM [falling, partial curve, poor fit]	–
Cc1ccc(CNC(=O)CSc2nc3n[nH]c(C)c3c(=N)n2-c2ccccc2Cl)cc1	2.82 µM [falling, partial curve, poor fit]	–
CC(=O)c1ccc(NC(=O)N2CCN(c3cccc(Cl)c3)CC2)cc1	23.1 µM [falling, single point]	–
CC(=O)OCCNc1cc(N2CCN(C)CC2)c2noc3c2c1C(=O)c1ccccc1-3	29.1 µM [falling, single point]	–
CCOc1cc(/C=N/NC(=O)c2cccnc2)ccc1OCC(=O)N(C)C	31.6 µM [falling, single point]	–
COc1cnc(-c2ccccn2)nc1Oc1ccc(Cl)c2ccccc12	35.5 µM [rising, single point]	–
CCOc1cccc(C2c3c(oc4cc(C)c(C)cc4c3=O)C(=O)N2CCCN(C)C)c1 (centres undefined)	14.6 µM [falling, partial curve]	–
O=C(N/N=C/c1ccncc1)c1cccs1	14.1 µM [falling, partial curve]	–
COC(=O)c1ccc(OCCOc2ccc(C(=O)OC)cc2)cc1	29.1 µM [rising, single point]	–
COc1ccc(NC(=O)c2cc([N+](=O)[O-])ccc2O)cc1	0.0794 µM [falling, full curve, poor fit]	11.2 µM [rising, partial curve, poor fit]
O=C1C2C3C=CC(CC3)C2C(=O)N1/N=C/c1ccc(O)cc1 (centres undefined)	0.112 µM [falling, full curve, poor fit]	–
Fc1ccc(C2C3=C(Nc4ncnn42)c2ccccc2OC3c2ccncc2)cc1 (centres undefined)	16.4 µM [falling, single point]	–
COc1ccc(N2C(=O)Cc3c2nc(N)c(C#N)c3N)cc1	5.01 µM [rising, partial curve, poor fit]	–
CN(CCc1ccccc1)C(=O)c1cc(COc2cccc(C(F)(F)F)c2)on1	8.91 µM [falling, partial curve, poor fit]	–
COc1cc(Cl)c(C)cc1NC(=O)CSCC#N	14.6 µM [rising, partial curve]	–
COC(=O)N/N=C/c1cc(C)n(-c2ccccc2)c1C	18.4 µM [rising, partial curve]	18.4 µM [falling, partial curve, poor fit]

Nothing new here: an excerpt of the list.
Structure (SMILES)	AC50 [1]	AC50 [2]
CC(=O)OCCNc1cc(N2CCN(C)CC2)c2noc3c2c1C(=O)c1ccccc1-3	29.1 µM [falling, single point]	–
CCOc1cc(/C=N/NC(=O)c2cccnc2)ccc1OCC(=O)N(C)C	31.6 µM [falling, single point]	–
